Reference: article doi:10.1101/2025.07.25.666749
Results are given in words; binding and its absence hold for the method and conditions named. Binding seen in cells or lysates may run through a third protein. These calls come from enrichment with a bait or labelling near it, and not all partners need be listed.

Protein sequences, listed by entry. Tags and fused reporters are not part of them.
UniProt Q9UKV8: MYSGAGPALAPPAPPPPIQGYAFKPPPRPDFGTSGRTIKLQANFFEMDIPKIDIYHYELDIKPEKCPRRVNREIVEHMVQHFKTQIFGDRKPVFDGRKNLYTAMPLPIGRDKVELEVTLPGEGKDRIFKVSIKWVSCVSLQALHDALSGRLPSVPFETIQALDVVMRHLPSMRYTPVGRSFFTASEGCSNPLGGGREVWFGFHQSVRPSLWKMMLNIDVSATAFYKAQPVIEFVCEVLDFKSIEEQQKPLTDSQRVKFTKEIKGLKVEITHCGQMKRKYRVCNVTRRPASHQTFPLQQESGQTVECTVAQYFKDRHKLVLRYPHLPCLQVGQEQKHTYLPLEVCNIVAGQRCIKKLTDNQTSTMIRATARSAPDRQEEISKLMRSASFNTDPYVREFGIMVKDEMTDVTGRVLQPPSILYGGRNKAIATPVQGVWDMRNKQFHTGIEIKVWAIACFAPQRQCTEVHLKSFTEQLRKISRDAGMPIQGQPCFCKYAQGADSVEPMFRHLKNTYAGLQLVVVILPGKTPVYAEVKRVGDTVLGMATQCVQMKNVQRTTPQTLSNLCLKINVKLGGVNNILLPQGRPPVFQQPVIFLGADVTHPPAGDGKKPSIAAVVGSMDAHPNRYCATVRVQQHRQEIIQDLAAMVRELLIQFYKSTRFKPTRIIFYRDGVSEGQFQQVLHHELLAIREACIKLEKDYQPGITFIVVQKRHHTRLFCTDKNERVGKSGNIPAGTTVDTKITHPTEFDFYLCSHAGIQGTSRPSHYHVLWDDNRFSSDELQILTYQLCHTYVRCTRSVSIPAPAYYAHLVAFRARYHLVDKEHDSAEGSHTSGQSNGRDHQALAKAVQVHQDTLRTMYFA
UniProt Q9HC16: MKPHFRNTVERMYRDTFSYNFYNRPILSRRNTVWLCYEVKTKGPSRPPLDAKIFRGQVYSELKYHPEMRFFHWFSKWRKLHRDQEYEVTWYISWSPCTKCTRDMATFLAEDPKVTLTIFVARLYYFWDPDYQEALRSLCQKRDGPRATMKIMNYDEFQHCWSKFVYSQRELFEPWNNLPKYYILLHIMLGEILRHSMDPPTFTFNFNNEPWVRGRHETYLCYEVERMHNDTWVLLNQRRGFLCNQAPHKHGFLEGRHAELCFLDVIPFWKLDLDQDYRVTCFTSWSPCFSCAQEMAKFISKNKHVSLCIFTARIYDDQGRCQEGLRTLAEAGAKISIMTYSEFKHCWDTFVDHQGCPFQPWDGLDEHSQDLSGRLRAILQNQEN
UniProt O15234: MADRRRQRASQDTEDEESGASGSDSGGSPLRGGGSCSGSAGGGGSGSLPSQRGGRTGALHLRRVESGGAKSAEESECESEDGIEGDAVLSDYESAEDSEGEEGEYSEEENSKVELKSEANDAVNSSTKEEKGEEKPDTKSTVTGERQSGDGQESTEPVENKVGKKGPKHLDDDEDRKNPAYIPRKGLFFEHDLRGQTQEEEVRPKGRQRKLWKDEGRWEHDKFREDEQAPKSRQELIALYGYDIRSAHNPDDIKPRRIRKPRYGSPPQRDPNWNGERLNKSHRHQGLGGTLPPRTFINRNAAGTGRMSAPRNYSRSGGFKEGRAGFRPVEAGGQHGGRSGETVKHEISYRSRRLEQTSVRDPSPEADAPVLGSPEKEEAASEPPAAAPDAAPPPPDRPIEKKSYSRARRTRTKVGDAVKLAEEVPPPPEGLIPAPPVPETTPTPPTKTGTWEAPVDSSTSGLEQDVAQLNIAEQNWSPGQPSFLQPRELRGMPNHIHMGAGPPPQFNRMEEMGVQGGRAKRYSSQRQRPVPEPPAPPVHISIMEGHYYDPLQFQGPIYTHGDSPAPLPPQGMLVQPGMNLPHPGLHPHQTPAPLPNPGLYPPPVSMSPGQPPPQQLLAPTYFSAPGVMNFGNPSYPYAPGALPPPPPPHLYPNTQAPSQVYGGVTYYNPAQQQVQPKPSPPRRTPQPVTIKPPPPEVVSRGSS
UniProt Q658Y4: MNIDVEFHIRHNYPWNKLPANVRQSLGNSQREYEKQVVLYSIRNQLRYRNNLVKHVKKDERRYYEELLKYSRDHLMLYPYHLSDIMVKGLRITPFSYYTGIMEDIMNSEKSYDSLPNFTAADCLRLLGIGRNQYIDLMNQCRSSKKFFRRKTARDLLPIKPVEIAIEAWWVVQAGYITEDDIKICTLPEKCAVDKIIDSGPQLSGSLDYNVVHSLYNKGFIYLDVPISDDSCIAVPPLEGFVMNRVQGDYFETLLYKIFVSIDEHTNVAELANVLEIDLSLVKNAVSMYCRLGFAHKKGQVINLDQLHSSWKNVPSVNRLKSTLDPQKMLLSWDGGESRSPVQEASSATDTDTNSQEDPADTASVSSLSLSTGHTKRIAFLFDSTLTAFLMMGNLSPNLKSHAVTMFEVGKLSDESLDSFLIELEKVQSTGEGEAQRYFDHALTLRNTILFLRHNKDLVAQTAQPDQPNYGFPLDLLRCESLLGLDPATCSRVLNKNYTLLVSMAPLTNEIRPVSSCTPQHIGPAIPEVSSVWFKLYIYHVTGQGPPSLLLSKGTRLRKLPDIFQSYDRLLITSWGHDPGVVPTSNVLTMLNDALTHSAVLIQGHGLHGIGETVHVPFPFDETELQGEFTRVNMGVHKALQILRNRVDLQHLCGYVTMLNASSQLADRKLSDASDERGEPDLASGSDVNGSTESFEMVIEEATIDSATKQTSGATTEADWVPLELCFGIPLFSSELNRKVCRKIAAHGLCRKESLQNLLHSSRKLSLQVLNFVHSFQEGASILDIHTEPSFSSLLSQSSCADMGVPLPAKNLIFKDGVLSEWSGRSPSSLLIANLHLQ
UniProt P51114: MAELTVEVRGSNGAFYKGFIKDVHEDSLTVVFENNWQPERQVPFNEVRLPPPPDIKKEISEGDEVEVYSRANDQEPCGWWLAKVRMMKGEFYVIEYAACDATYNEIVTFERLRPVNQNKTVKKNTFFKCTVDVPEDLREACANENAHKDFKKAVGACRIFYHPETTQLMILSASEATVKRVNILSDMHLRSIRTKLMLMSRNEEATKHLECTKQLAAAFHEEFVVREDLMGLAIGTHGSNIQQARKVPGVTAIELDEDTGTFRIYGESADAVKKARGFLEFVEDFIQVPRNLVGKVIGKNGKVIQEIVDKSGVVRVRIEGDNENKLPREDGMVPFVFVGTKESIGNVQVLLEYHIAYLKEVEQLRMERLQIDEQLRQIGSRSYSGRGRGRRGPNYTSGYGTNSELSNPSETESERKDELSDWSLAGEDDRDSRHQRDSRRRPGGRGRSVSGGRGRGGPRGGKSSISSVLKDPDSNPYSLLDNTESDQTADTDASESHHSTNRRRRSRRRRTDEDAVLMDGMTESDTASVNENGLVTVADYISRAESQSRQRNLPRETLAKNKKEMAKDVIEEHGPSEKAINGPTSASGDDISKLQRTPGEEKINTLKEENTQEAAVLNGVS
UniProt P33241: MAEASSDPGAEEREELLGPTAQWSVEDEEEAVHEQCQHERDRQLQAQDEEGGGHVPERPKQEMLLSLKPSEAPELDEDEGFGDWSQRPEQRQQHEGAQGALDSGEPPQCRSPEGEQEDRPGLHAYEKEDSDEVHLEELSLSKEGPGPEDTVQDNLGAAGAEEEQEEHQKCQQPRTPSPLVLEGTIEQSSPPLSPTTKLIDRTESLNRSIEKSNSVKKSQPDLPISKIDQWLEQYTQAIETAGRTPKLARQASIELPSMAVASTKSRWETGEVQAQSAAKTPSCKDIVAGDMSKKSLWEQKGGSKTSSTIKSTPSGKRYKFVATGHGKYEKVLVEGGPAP
UniProt P11940: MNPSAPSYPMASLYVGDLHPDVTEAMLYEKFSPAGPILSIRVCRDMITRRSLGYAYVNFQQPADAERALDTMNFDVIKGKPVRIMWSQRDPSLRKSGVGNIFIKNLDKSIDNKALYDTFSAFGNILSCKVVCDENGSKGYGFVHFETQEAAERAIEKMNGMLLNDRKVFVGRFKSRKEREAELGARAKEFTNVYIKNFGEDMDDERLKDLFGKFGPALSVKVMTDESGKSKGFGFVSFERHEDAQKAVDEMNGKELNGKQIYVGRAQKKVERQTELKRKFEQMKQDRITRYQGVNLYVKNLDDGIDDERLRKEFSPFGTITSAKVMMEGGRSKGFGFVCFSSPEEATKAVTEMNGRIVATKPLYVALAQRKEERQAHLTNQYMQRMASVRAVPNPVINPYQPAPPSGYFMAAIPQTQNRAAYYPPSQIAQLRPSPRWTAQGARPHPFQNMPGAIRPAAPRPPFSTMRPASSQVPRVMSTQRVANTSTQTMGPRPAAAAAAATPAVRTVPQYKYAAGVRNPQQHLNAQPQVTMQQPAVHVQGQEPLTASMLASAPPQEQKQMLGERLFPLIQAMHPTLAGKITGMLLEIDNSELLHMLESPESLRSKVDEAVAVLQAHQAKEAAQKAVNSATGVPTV
UniProt Q9UPQ9: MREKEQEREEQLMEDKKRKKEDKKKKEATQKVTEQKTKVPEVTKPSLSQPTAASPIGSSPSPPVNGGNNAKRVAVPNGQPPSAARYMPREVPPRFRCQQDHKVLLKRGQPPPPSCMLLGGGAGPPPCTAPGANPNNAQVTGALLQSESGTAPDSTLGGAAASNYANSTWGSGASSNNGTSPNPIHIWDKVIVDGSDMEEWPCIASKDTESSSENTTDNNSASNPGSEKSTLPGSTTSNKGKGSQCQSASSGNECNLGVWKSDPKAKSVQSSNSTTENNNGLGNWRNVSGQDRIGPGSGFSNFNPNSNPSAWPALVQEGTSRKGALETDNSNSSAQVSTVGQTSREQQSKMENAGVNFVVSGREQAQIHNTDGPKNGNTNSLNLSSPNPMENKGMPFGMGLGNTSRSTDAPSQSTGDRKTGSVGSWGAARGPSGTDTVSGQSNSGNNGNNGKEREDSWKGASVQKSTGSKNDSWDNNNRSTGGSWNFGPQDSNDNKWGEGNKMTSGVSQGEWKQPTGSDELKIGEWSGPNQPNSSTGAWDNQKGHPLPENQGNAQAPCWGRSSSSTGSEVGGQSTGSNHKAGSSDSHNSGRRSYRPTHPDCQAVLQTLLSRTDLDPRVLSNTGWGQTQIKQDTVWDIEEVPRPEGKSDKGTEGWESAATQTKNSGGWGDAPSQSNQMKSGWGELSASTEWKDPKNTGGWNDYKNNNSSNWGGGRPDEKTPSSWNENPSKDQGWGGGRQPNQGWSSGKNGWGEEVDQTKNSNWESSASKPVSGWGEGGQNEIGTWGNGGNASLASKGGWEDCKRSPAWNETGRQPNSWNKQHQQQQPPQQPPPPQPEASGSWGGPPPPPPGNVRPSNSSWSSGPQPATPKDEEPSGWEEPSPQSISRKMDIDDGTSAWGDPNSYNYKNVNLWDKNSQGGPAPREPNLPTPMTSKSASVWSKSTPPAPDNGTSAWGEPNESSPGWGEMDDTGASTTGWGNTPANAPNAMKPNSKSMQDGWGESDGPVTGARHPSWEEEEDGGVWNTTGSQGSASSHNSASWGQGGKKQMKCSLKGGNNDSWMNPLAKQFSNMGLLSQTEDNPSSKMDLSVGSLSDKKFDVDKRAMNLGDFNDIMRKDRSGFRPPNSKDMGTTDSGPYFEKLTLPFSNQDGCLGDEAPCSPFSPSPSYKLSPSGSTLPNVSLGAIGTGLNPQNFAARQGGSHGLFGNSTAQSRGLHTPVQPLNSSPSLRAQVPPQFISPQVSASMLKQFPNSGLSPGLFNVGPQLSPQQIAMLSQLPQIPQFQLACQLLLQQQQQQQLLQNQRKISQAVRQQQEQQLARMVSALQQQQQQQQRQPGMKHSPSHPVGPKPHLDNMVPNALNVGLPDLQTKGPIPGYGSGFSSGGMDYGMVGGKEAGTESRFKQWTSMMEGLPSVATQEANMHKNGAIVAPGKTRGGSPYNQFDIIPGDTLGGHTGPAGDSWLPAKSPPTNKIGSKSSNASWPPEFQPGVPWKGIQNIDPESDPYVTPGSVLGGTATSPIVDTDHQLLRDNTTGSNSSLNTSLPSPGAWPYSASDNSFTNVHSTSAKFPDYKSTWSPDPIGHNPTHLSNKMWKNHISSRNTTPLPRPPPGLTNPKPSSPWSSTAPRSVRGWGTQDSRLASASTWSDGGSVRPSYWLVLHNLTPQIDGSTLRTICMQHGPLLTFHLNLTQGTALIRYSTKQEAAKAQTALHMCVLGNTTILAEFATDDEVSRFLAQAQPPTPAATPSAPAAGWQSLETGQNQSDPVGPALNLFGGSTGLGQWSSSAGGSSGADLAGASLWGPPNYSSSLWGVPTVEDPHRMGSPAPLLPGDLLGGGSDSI
UniProt P67809: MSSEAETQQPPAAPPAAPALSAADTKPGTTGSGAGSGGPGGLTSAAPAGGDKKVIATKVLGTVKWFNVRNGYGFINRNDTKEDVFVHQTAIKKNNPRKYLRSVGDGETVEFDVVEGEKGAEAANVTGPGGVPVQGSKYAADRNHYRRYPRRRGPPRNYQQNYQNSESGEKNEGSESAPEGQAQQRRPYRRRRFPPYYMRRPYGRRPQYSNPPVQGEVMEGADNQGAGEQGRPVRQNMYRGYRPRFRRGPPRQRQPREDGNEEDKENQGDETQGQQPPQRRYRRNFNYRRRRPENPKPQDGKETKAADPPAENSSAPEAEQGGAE

T1: ZFP36L1 (endogenous) (human (endogenous in primary T cells)) (UniProt Q07352)
T1 sequence: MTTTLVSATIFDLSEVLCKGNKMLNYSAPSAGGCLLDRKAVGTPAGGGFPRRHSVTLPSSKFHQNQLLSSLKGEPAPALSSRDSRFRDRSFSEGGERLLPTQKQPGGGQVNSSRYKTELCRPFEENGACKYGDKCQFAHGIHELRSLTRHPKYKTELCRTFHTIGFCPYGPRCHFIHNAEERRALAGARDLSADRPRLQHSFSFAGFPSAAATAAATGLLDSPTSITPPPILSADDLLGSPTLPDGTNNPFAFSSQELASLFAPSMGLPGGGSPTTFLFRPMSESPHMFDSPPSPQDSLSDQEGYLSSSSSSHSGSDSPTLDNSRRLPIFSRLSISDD


Target: T1, ZFP36L1 (endogenous) (human (endogenous in primary T cells))
Experiment: affinity purification with mass spectrometry

Molecule	binding
AGO2 (from UniProt Q9UKV8 1-859)	binds
AGO3 (from UniProt Q9H9G7 1-860)	binds
APOBEC3G (from UniProt Q9HC16 1-384)	binds
CASC3 (from UniProt O15234 1-703)	binds
DISL3 (human (endogenous in primary T cells))	binds
FAM91A1 (from UniProt Q658Y4 1-838)	binds
FXR1 (from UniProt P51114 1-621)	binds
FXR2 (from UniProt P51116 1-673)	binds
Fam98A (from UniProt Q8NCA5 1-518)	binds
LSP1 (from UniProt P33241 1-339)	binds
PABPC1 (from UniProt P11940 1-636)	binds
PEX14 (from UniProt O75381 1-377)	binds
PRRC2A (from UniProt P48634 1-2157)	binds
SQSTM1 (p62) (from UniProt Q13501 1-440)	binds
STRIP1 (Fam40a) (from UniProt Q5VSL9 1-837)	binds
TNRC6B (from UniProt Q9UPQ9 1-1833)	binds
YBX1 (from UniProt P67809 1-324)	binds
MOV10 (protein, UniProt Q9HCE1 1-1003) MPSKFSCRQLREAGQCFESFLVVRGLDMETDRERLRTIYNRDFKISFGTPAPGFSSMLYGMKIANLAYVTKTRVRFFRLDRWADVRFPEKRRMKLGSDISKHHKSLLAKIFYDRAEYLHGKHGVDVEVQGPHEARDGQLLIRLDLNRKEVLTLRLRNGGTQSVTLTHLFPLCRTPQFAFYNEDQELPCPLGPGECYELHVHCKTSFVGYFPATVLWELLGPGESGSEGAGTFYIARFLAAVAHSPLAAQLKPMTPFKRTRITGNPVVTNRIEEGERPDRAKGYDLELSMALGTYYPPPRLRQLLPMLLQGTSIFTAPKEIAEIKAQLETALKWRNYEVKLRLLLHLEELQMEHDIRHYDLESVPMTWDPVDQNPRLLTLEVPGVTESRPSVLRGDHLFALLSSETHQEDPITYKGFVHKVELDRVKLSFSMSLLSRFVDGLTFKVNFTFNRQPLRVQHRALELTGRWLLWPMLFPVAPRDVPLLPSDVKLKLYDRSLESNPEQLQAMRHIVTGTTRPAPYIIFGPPGTGKTVTLVEAIKQVVKHLPKAHILACAPSNSGADLLCQRLRVHLPSSIYRLLAPSRDIRMVPEDIKPCCNWDAKKGEYVFPAKKKLQEYRVLITTLITAGRLVSAQFPIDHFTHIFIDEAGHCMEPESLVAIAGLMEVKETGDPGGQLVLAGDPRQLGPVLRSPLTQKHGLGYSLLERLLTYNSLYKKGPDGYDPQFITKLLRNYRSHPTILDIPNQLYYEGELQACADVVDRERFCRWAGLPRQGFPIIFHGVMGKDEREGNSPSFFNPEEAATVTSYLKLLLAPSSKKGKARLSPRSVGVISPYRKQVEKIRYCITKLDRELRGLDDIKDLKVGSVEEFQGQERSVILISTVRSSQSFVQLDLDFNLGFLKNPKRFNVAVTRAKALLIIVGNPLLLGHDPDWKVFLEFCKENGGYTGCPFPAKLDLQQGQNLLQGLSKLSPSTSGPHSHDYLPQEREGEGGLSLQVEPEWRNEL	binds
ZFP36L2 (protein, UniProt P47974 1-494) MSTTLLSAFYDVDFLCKTEKSLANLNLNNMLDKKAVGTPVAAAPSSGFAPGFLRRHSASNLHALAHPAPSPGSCSPKFPGAANGSSCGSAAAGGPTSYGTLKEPSGGGGTALLNKENKFRDRSFSENGDRSQHLLHLQQQQKGGGGSQINSTRYKTELCRPFEESGTCKYGEKCQFAHGFHELRSLTRHPKYKTELCRTFHTIGFCPYGPRCHFIHNADERRPAPSGGASGDLRAFGTRDALHLGFPREPRPKLHHSLSFSGFPSGHHQPPGGLESPLLLDSPTSRTPPPPSCSSASSCSSSASSCSSASAASTPSGAPTCCASAAAAAAAALLYGTGGAEDLLAPGAPCAACSSASCANNAFAFGPELSSLITPLAIQTHNFAAVAAAAYYRSQQQQQQQGLAPPAQPPAPPSATLPAGAAAPPSPPFSFQLPRRLSDSPVFDAPPSPPDSLSDRDSYLSGSLSSGSLSGSESPSLDPGRRLPIFSRLSISDD	binds
ZNF598 (protein, UniProt Q86UK7 1-904) MAAAGGAEGRRAALEAAAAAAPERGGGSCVLCCGDLEATALGRCDHPVCYRCSTKMRVLCEQRYCAVCREELRQVVFGKKLPAFATIPIHQLQHEKKYDIYFADGKVYALYRQLLQHECPRCPELPPFSLFGDLEQHMRRQHELFCCRLCLQHLQIFTYERKWYSRKDLARHRMQGDPDDTSHRGHPLCKFCDERYLDNDELLKHLRRDHYFCHFCDSDGAQDYYSDYAYLREHFREKHFLCEEGRCSTEQFTHAFRTEIDLKAHRTACHSRSRAEARQNRHIDLQFSYAPRHSRRNEGVVGGEDYEEVDRYSRQGRVARAGTRGAQQSRRGSWRYKREEEDREVAAAVRASVAAQQQEEARRSEDQEEGGRPKKEEAAARGPEDPRGPRRSPRTQGEGPGPKETSTNGPVSQEAFSVTGPAAPGCVGVPGALPPPSPKLKDEDFPSLSASTSSSCSTAATPGPVGLALPYAIPARGRSAFQEEDFPALVSSVPKPGTAPTSLVSAWNSSSSSKKVAQPPLSAQATGSGQPTRKAGKGSRGGRKGGPPFTQEEEEDGGPALQELLSTRPTGSVSSTLGLASIQPSKVGKKKKVGSEKPGTTLPQPPPATCPPGALQAPEAPASRAEGPVAVVVNGHTEGPAPARSAPKEPPGLPRPLGSFPCPTPQEDFPALGGPCPPRMPPPPGFSAVVLLKGTPPPPPPGLVPPISKPPPGFSGLLPSPHPACVPSPATTTTTKAPRLLPAPRAYLVPENFRERNLQLIQSIRDFLQSDEARFSEFKSHSGEFRQGLISAAQYYKSCRDLLGENFQKVFNELLVLLPDTAKQQELLSAHTDFCNREKPLSTKSKKNKKSAWQATTQQAGLDCRVCPTCQQVLAHGDASSHQALHAARDDDFPSLQAIARIIT	binds
UPF1 (protein, UniProt Q92900 1-1129) MSVEAYGPSSQTLTFLDTEEAELLGADTQGSEFEFTDFTLPSQTQTPPGGPGGPGGGGAGGPGGAGAGAAAGQLDAQVGPEGILQNGAVDDSVAKTSQLLAELNFEEDEEDTYYTKDLPIHACSYCGIHDPACVVYCNTSKKWFCNGRGNTSGSHIVNHLVRAKCKEVTLHKDGPLGETVLECYNCGCRNVFLLGFIPAKADSVVVLLCRQPCASQSSLKDINWDSSQWQPLIQDRCFLSWLVKIPSEQEQLRARQITAQQINKLEELWKENPSATLEDLEKPGVDEEPQHVLLRYEDAYQYQNIFGPLVKLEADYDKKLKESQTQDNITVRWDLGLNKKRIAYFTLPKTDSGNEDLVIIWLRDMRLMQGDEICLRYKGDLAPLWKGIGHVIKVPDNYGDEIAIELRSSVGAPVEVTHNFQVDFVWKSTSFDRMQSALKTFAVDETSVSGYIYHKLLGHEVEDVIIKCQLPKRFTAQGLPDLNHSQVYAVKTVLQRPLSLIQGPPGTGKTVTSATIVYHLARQGNGPVLVCAPSNIAVDQLTEKIHQTGLKVVRLCAKSREAIDSPVSFLALHNQIRNMDSMPELQKLQQLKDETGELSSADEKRYRALKRTAERELLMNADVICCTCVGAGDPRLAKMQFRSILIDESTQATEPECMVPVVLGAKQLILVGDHCQLGPVVMCKKAAKAGLSQSLFERLVVLGIRPIRLQVQYRMHPALSAFPSNIFYEGSLQNGVTAADRVKKGFDFQWPQPDKPMFFYVTQGQEEIASSGTSYLNRTEAANVEKITTKLLKAGAKPDQIGIITPYEGQRSYLVQYMQFSGSLHTKLYQEVEIASVDAFQGREKDFIILSCVRANEHQGIGFLNDPRRLNVALTRARYGVIIVGNPKALSKQPLWNHLLNYYKEQKVLVEGPLNNLRESLMQFSKPRKLVNTINPGARFMTTAMYDAREAIIPGSVYDRSSQGRPSSMYFQTHDQIGMISAGPSHVAAMNIPIPFNLVMPPMPPPGYFGQANGPAAGRGTPKGKTGRGGRQKNRFGLPGPSQTNLPNSQASQDVASQPFSQGALTQGYISMSQPSQMSQPGLSQPELSQDSYLGDEFKSQIDVALSQDSTYQGERAYQHGGVTGLSQY	binds
